This assay concerns the target glucocorticoid receptor (rat (endogenous in primary rat BMMs)) (UniProt P06536). The assay can be described thus: co-IP; lysate of rat BMMs/osteoclasts, with or without 500 nM dexamethasone; precipitated with GR antibody or mock IgG overnight at 4 °C, protein G magnetic beads, washed with lysis buffer, detected by Western blotting. For orientation: A western blot detects proteins with antibodies after separation by electrophoresis.

Protein sequences, listed by entry. Tags and fused reporters are not part of them.
UniProt P06536: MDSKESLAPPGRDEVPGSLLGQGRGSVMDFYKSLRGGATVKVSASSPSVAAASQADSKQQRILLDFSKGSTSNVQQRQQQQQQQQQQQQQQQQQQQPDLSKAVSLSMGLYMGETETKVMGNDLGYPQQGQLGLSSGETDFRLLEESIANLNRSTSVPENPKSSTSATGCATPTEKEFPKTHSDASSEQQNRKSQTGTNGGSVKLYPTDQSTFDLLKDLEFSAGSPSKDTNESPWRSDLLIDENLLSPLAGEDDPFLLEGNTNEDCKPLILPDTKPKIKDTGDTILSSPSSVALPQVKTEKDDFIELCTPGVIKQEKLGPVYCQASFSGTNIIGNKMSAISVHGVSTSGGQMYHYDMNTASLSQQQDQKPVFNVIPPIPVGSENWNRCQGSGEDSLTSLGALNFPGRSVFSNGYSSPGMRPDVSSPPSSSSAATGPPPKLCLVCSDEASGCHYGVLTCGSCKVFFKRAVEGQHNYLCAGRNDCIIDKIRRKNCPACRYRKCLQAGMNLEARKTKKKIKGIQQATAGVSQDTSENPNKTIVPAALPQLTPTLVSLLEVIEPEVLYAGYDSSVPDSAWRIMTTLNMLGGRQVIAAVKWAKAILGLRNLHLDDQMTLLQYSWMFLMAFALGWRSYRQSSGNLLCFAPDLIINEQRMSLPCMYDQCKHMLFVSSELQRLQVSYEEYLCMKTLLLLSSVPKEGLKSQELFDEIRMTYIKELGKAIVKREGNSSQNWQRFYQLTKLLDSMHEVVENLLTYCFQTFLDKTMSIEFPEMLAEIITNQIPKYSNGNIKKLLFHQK
UniProt Q62986: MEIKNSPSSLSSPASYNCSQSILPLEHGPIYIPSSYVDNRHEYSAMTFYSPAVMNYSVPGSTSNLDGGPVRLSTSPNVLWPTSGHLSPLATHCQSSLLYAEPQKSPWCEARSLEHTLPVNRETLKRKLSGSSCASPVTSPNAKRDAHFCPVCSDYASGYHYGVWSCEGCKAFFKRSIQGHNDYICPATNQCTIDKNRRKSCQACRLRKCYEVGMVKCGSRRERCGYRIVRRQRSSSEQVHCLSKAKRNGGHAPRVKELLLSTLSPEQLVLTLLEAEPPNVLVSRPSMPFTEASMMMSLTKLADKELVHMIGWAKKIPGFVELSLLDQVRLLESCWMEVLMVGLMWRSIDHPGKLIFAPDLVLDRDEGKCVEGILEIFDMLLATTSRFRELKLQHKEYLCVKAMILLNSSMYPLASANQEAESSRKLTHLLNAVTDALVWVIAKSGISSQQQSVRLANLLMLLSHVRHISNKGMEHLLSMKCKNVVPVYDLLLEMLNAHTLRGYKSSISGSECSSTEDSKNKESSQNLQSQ

These are yes or no findings as the source states them, for the method shown. Binding seen in cells or lysates may run through a third protein. Some entries that bind do so weakly or less than the wild type.

Regarding “estrogen receptor β (from UniProt Q62986 1-530)”, the binding result was “binds”.

The values are drawn from paper PMC10124047.
